Results as given in patent US20240287368A1, “COMPOSITION CONTAINING REFRIGERANT, USE OF SAME, REFRIGERATOR HAVING SAME, AND METHOD FOR OPERATING SAID REFRIGERATOR” (DAIKIN INDUSTRIES, LTD., priority 2021, published 2024).

Test: GWP of mixed refrigerants evaluated from IPCC fourth report values
Details: GWP of HFO-1132(E) set to 1; for GWP(AR4): IPCC fourth report

C=C(F)C(F)(F)F [3-1]
GWP(AR4): 4

CC(F)F [2-5, 1,1-difluoroethane]
GWP (R32 and R152a per IPCC fourth report): 124

FCC(F)(F)F [compound 1]
GWP(AR4): 1430
